The source of these data is PMC12343990.

By UniProt entry, the sequences of proteins in these tests, tags left out.
UniProt Q8CFN5: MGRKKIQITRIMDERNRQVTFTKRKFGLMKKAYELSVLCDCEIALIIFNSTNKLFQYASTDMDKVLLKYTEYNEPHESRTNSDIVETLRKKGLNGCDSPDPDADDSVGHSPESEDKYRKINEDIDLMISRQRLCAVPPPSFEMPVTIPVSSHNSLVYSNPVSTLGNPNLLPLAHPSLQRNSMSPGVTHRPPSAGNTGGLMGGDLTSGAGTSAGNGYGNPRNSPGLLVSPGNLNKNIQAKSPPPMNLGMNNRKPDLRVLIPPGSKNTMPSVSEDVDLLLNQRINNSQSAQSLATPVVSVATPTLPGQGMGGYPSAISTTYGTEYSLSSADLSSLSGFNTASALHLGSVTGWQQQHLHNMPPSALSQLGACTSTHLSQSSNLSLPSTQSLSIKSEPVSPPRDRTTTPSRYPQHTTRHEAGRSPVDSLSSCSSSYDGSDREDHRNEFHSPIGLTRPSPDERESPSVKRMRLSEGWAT

One experiment addresses T1, HA-vinculin (UniProt Q64727).
T1 sequence: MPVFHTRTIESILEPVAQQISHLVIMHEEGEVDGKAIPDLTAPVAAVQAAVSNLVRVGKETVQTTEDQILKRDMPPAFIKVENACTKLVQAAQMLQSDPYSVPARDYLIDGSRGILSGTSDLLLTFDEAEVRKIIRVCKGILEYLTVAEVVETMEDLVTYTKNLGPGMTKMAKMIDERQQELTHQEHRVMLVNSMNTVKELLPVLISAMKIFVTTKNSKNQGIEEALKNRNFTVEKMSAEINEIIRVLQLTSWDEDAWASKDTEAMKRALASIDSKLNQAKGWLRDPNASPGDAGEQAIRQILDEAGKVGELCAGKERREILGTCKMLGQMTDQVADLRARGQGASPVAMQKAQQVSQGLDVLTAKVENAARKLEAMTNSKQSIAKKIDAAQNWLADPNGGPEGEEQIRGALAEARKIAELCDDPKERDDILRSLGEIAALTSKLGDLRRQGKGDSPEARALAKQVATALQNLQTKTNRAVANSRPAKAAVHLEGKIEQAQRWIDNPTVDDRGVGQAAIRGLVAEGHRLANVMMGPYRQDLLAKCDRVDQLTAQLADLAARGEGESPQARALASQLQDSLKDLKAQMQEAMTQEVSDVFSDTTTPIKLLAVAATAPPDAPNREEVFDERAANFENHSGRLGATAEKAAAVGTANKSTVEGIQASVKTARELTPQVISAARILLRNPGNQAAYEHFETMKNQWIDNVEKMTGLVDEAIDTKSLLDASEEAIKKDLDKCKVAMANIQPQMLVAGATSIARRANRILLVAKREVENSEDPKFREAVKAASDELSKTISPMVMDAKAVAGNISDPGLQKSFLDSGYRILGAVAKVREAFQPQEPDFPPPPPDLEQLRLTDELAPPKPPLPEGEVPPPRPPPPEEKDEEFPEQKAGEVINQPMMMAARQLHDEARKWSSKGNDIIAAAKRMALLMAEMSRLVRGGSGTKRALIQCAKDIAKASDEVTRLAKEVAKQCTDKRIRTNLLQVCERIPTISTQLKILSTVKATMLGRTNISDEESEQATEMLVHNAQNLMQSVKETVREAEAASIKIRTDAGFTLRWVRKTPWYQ
Put plainly: co-IP; MLO-Y4 cells with and without overexpression of HA-vinculin and Flag-Mef2c, lysed in RIPA buffer at 4 °C; supernatant incubated with primary antibody or IgG overnight, then Protein A/G Magnetic Beads 1 h at room temperature; washed three times with IP buffer; SDS-PAGE and western blotting. (In western blotting, separated proteins are transferred to a membrane and probed.)

The target in experiment [1] is T2, vinculin (mouse (endogenous in MLO-Y4)) (UniProt Q64727).
T2 sequence: T1 sequence
The description is as above.

Results are given in words; binding and its absence hold for the method and conditions named. Binding seen in cells or lysates may run through a third protein. Some entries that bind do so weakly or less than the wild type. For some assays here: Where a sequence is shown, tags or fusion partners need not be part of it.

Flag-Mef2c (from UniProt Q8CFN5 1-474): the binding result with HA-vinculin is listed as “binds”.
Consider Mef2c (from UniProt Q8CFN5 1-474), for which, in experiment [1], the binding result is “binds”.
